Results are given in words; binding and its absence hold for the method and conditions named. Binding seen in cells or lysates may run through a third protein. Some binding calls cover weakened binding; strength is not graded here.
Molecular target: GluA1 (UniProt P23818)
Experiment: co-IP; hippocampal neurones co-transfected with pTT5-Stargazin-His and pTT5-GluA1-Flag, 48 h; Aβ1-42-induced cells; lysates incubated with Flag-tagged antibody at 4 °C overnight, Protein A/G Plus-Agarose 6 h, washed with PBS; blot with GluA1 and Stargazin antibodies; caspase-1 said to inhibit the interaction

Sequences of proteins named here, by UniProt entry; tags and fusion partners are left off. Residues count along the entry.
UniProt P23818, residues 19-907: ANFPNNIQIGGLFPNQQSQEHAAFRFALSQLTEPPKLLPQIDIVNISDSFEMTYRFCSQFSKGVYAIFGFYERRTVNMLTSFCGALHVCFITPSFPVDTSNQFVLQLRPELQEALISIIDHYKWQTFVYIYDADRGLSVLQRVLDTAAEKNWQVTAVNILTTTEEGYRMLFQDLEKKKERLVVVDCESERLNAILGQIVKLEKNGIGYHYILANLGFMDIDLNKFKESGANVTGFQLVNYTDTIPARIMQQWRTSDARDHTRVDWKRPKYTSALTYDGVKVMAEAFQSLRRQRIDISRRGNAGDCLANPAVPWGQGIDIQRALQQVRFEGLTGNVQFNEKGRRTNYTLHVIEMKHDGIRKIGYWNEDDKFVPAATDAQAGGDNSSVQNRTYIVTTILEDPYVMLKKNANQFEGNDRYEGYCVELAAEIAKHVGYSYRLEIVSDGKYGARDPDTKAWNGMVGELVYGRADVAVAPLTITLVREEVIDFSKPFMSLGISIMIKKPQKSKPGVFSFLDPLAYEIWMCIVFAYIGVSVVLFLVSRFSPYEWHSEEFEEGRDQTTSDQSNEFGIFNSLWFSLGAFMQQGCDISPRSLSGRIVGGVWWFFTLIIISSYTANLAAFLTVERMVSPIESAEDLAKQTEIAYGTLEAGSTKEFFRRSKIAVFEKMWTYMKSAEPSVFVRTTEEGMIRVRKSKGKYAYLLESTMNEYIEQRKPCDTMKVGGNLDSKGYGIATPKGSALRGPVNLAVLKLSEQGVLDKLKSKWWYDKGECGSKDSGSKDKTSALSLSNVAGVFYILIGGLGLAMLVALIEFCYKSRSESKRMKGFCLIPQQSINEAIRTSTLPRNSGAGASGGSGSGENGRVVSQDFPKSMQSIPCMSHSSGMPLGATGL

B1: Stargazin (protein, UniProt O88602 1-323)
chain: MGLFDRGVQMLLTTVGAFAAFSLMTIAVGTDYWLYSRGVCKTKSVSENETSKKNEEVMTHSGLWRTCCLEGNFKGLCKQIDHFPEDADYEADTAEYFLRAVRASSIFPILSVILLFMGGLCIAASEFYKTRHNIILSAGIFFVSAGLSNIIGIIVYISANAGDPSKSDSKKNSYSYGWSFYFGALSFIIAEMVGVLAVHMFIDRHKQLRATARATDYLQASAITRIPSYRYRYQRRSRSSSRSTEPSHSRDASPVGVKGFNTLPSTEISMYTLSRDPLKAATTPTATYNSDRDNSFLQVHNCIQKDSKDSLHANTANRRTTPV
binding: binds
